Test results published in patent publication US20200332006A1 (ULTRAHUMAN NINE, published 2020).
No constants are given. Whether binding was seen depends on the method and setting. Some entries that bind do so weakly or less than the wild type.

Chains of the proteins cited; added tags and fusions are not shown. Lines headed by an entry give the natural chain unless they say otherwise; changes in a name come on top.
UniProt Q15116: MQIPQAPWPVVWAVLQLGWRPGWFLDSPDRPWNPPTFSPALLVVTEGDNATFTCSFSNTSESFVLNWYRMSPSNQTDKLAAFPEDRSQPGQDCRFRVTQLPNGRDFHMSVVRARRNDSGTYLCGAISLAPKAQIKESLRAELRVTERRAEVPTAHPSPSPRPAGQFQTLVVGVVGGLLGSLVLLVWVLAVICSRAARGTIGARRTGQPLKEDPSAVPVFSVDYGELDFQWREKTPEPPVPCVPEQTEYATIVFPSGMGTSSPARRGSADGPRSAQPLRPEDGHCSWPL

T1: human LSAMP, expressed on HEK293 cells (human, UniProt Q13449 29-315)
T1 construct: also called BC033803
T1 sequence: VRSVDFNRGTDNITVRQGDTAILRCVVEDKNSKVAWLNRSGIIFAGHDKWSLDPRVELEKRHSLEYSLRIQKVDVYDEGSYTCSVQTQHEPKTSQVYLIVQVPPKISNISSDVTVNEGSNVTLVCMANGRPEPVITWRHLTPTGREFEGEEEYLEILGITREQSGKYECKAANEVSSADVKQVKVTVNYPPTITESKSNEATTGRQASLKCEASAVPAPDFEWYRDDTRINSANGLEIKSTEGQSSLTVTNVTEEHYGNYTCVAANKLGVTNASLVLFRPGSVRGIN

T2: human BTN2A1, expressed on HEK293 cells (human, UniProt Q7KYR7 29-527)
T2 construct: also called NM_007049
T2 sequence: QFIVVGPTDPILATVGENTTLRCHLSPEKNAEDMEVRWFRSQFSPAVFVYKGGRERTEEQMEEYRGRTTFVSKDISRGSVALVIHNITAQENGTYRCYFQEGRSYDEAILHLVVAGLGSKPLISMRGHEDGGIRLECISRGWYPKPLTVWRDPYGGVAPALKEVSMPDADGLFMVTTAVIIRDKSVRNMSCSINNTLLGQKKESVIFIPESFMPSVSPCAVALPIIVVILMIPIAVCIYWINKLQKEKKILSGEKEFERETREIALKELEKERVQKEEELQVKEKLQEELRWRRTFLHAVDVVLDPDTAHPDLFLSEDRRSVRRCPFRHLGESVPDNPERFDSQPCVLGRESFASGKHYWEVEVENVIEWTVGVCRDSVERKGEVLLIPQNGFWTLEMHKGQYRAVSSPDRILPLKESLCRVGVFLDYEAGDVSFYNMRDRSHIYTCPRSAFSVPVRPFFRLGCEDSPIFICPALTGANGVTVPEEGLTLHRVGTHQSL


Columns and labels:
[1] = target: human PD1 human Fc tagged recombinant protein (human) (UniProt Q15116); assay: direct titration ELISA, IgG1null on coated PD1-Fc
[2] = target: cynomolgus monkey PD1 human Fc tagged recombinant protein (cynomolgus monkey); assay: direct titration ELISA, IgG1null on coated PD1-Fc
[3] = target: T1, human LSAMP, expressed on HEK293 cells; assay: flow cytometry on live LSAMP-transfected HEK293 cells, 2 ug/ml IgG
[4] = target: T1, human LSAMP, expressed on HEK293 cells; assay: Retrogenix cell microarray, fixed HEK293 cells, 2 ug/ml IgG
[5] = target: human PD1, membrane-expressed on transfected cells (CHO-K1 stable line, HEK293 transfectants, PD1 effector cells, T cells) (human) (UniProt Q15116); assay: as above
[6] = target: human PD1, membrane-expressed on transfected cells (CHO-K1 stable line, HEK293 transfectants, PD1 effector cells, T cells) (human) (UniProt Q15116); assay: flow cytometry on live PD1-transfected HEK293 cells, 2 ug/ml IgG
[7] = target: T1, human LSAMP, expressed on HEK293 cells; assay: flow cytometry on live transfected HEK293 cells
Protocol: (§1) FIG. 11. […] Analyses of binding specificity were performed on HEK293 cells transiently transfected with plasmids encoding either human PD1, human BTN2A1, human LSAMP, human CD20 or ZS green marker only. Each antibody was used in staining at […] concentration and histograms are indicated per antibody in this figure.
(§2) Human cell membrane receptor proteome arrays were performed at Retrogenix Ltd. Primary screens: 2 μg/ml of each antibody was screened for binding against fixed HEK293 cells/slides expressing 5528 human plasma membrane and tethered secreted proteins individually. […] Antibody binding was detected using AF647 fluorescent secondary anti-human IgG1 antibody. Primary hits (duplicate spots) were identified by analysing fluorescence (AF647 and ZsGreen1) on ImageQuant. Confirmation/specificity screens: Expression vectors encoding ZsGreen1 only, or ZsGreen1 and CD20, PD1, BTN2A1, or LSAMP were transfected into human HEK293 cells. […] Cells were washed, and incubated with the same AF647 anti-human IgG Fc detection antibody as used in the cell microarray screens. Cells were again washed, and analysed by flow cytometry using an Accuri flow cytometer (BD). A 7AAD live/dead dye was used to exclude dead cells, and ZsGreen1-positive cells (i.e. transfected cells) were selected for analyses.

[8] = target: T2, human BTN2A1, expressed on HEK293 cells; assay: flow cytometry on live transfected HEK293 cells
Protocol: as §1, §2

Binder	binding [1]	binding [2]	binding [3]	binding [4]	binding [5]	binding [6]	binding [7]	binding [8]
Clone 15D07, IgG1null format (antibody, V domains shown) VH: EVQLVESGGGLVQPGGSLRLSCAASGFSFTSYGMHWVRQAPGKGLEWVGVIWQDGSTNYVDSVKGRFTISRDNAKNSLYLQMNSLRAEDTAVYYCARGYGNYWYIDVWGQGTTVTVSS VL: DIVMTQSPDSLAVSLGERATINCKSSQSVSNDLAWYQQKPGQPPKLLINYASHRFTGVPDRFSGSGYGTDFTLTISSLQAEDVAVYYCQQAYSTPYTFGQGTKLEIK	binds	binds	–	–	–	–	–	–
Clone 11C08, IgG1null format (antibody, V domains shown) VH: EVQLVESGGGLVQPGGSLRLSCAASGFTFSSYGVHWVRQAPGKGLEWVGVIWQDGSENYVDSVKGRFTISRDNAKNSLYLQMNSLRAEDTAVYYCARAYGNYWYIDRWGQGTTVTVSS VL: DIVMTQSPDSLAVSLGERATINCKSSQSVSNDLAWYQQKPGQPPKLLINYASHRFTGVPDRFSGSGYGTDFTLTISSLQAEDVAVYYCQQAYSTPYTFGQGTKLEIK	binds	binds	–	–	–	–	–	–
Antibody MH8, IgG1null format (antibody, V domains shown, Tested as IgG1null (human IgG1 L234A, L235A, G237A) with human Ckappa; also called clone MH8) VH: EVQLVESGGGLVQPGGSLRLSCAASGFTFSSYGMSWVRQAPGKGLEWVANIWQDGSTKYVDSVKGRFTISRDNAKNSLYLQMNSLRAEDTAVYYCARAYGNYWYIDRWGQGTTVTVSS VL: DIVMTQSPDSLAVSLGERATINCKSSQSVTNDVAWYQQKPGQPPKLLINYAYHRFTGVPDRFSGSGYGTDFTLTISSLQAEDVAVYYCHQAYSTPYTFGQGTKLEIK	binds	binds	binds	binds	binds	binds	–	–
Clone 17A12, IgG1null format (antibody, V domains shown) VH: EVQLVESGGGLVQPGGSLRLSCAASGFSFSSYGMHWVRQAPGKGLEWLANIWQDGSENYVDSVKGRFTISRDNAKNSLYLQMNSLRAEDTAVYYCARAYGNYWYIDRWGQGTTVTVSS VL: DIVMTQSPDSLAVSLGERATINCKSSQSVSNDVAWYQQKPGQPPKLLINYASHRFTGVPDRFSGSGYGTDFTLTISSLQAEDVAVYYCQQAYSTPYTFGQGTKLEIK	binds	binds	–	–	–	–	–	–
Antibody MH4, IgG1null format (antibody, V domains shown, Tested as IgG1null (human IgG1 L234A, L235A, G237A) with human Ckappa; also called clone MH4) VH: EVQLVESGGGLVQPGGSLRLSCAASGFSLSSYGMSWVRQAPGKGLEWVAVIWQDGSTNYVDSVKGRFTISRDNAKNSLYLQMNSLRAEDTAVYYCARAYGNYWYIDRWGQGTTVTVSS VL: DIVMTQSPDSLAVSLGERATINCKSSQSVTNDVAWYQQKPGQPPKLLINYAYHRFTGVPDRFSGSGYGTDFTLTISSLQAEDVAVYYCHQAYSTPYTFGQGTKLEIK	binds	binds	–	–	binds	binds	no binding (tested: 2 ug/ml)	–
Antibody MH12, IgG1null format (antibody, V domains shown, Tested as IgG1null (human IgG1 L234A, L235A, G237A) with human Ckappa; also called clone MH12) VH: EVQLVESGGGLVQPGGSLRLSCAASGFTFSSYGMSWVRQAPGKGLEWVANIWQDGSEKYVDSVKGRFTISRDNAKNSLYLQMNSLRAEDTAVYYCARAYGNYWYIDRWGQGTTVTVSS VL: DIVMTQSPDSLAVSLGERATINCKSSQSVTNDVAWYQQKPGQPPKLLINYAYHRFTGVPDRFSGSGYGTDFTLTISSLQAEDVAVYYCHQAYSTPYTFGQGTKLEIK	binds	binds	binds	binds	binds	binds	–	no binding (tested: 2 ug/ml)

The remaining lines, values ahead:

binding [1]	binding [2]	binding [3]	binding [4]	binding [5]	binding [6]	binding [7]	binding [8]	Binder
binds	binds	–	–	–	–	–	–	Clone 20C07, IgG1null format (antibody, V domains shown) VH: EVQLVESGGGLVQPGGSLRLSCAASGFSFTSYGMSWVRQAPGKGLEWLANIWQDGSTNYVDSVKGRFTISRDNAKNSLYLQMNSLRAEDTAVYYCARAYGNYWYIDRWGQGTTVTVSS VL: DIVMTQSPDSLAVSLGERATINCKSSQSVSNDVAWYQQKPGQPPKLLINYASHRFTGVPDRFSGSGYGTDFTLTISSLQAEDVAVYYCHQAYSTPYTFGQGTKLEIK
binds	binds	–	–	–	–	–	–	Clone 17D08, IgG1null format (antibody, V domains shown) VH: EVQLVESGGGLVQPGGSLRLSCAASGFTLSSYGMHWVRQAPGKGLEWLAVIWADGSTNYVDSVKGRFTISRDNAKNSLYLQMNSLRAEDTAVYYCARAYGNYMYIDVWGQGTTVTVSS VL: DIVMTQSPDSLAVSLGERATINCKSSQSVSNDVAWYQQKPGQPPKLLINYASHRFTGVPDRFSGSGYGTDFTLTISSLQAEDVAVYYCHQAYSTPYTFGQGTKLEIK
binds	binds	–	–	–	–	–	–	Clone 17G08, IgG1null format (antibody, V domains shown) VH: EVQLVESGGGLVQPGGSLRLSCAASGFTFSSYGMHWVRQAPGKGLEWVGVIKQDGSENYVDSVKGRFTISRDNAKNSLYLQMNSLRAEDTAVYYCARAYGNYWYIDRWGQGTTVTVSS VL: DIVMTQSPDSLAVSLGERATINCKSSQSVSNDVAWYQQKPGQPPKLLINYASHRFTGVPDRFSGSGYGTDFTLTISSLQAEDVAVYYCHQAYSTPYTFGQGTKLEIK
